Experimental data from the supplement of paper PMC6411743.
± gives the standard deviation of the averaged measurements. The entries are a selection whose mix differs from that of the whole data set. Most values lie at the level of the controls, where differences are scatter.

Chains of the proteins cited; added tags and fusions are not shown. Lines headed by an entry give the natural chain unless they say otherwise; changes in a name come on top.
UniProt Q9UPT9: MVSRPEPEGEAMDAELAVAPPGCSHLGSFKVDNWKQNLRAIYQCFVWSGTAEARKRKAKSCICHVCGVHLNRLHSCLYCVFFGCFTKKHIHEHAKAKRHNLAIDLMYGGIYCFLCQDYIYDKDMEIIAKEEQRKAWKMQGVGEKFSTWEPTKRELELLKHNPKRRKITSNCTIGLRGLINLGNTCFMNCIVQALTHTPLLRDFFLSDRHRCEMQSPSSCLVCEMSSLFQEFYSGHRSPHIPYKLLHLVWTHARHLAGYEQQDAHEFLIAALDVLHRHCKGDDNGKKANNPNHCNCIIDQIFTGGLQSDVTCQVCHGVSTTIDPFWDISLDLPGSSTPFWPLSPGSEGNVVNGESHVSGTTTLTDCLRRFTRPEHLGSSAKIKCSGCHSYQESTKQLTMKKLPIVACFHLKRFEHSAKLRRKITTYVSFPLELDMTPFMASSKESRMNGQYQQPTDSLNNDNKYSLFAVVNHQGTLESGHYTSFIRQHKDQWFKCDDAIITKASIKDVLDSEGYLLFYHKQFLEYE
UniProt Q9ULR0: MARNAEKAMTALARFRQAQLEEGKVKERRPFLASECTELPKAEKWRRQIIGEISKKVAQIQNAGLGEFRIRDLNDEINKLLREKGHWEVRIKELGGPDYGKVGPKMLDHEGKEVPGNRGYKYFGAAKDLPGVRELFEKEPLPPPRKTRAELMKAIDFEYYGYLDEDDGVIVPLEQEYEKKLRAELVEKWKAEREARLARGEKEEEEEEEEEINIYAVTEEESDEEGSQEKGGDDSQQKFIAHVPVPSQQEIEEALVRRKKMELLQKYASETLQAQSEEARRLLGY
UniProt Q9UJW0, whole entry: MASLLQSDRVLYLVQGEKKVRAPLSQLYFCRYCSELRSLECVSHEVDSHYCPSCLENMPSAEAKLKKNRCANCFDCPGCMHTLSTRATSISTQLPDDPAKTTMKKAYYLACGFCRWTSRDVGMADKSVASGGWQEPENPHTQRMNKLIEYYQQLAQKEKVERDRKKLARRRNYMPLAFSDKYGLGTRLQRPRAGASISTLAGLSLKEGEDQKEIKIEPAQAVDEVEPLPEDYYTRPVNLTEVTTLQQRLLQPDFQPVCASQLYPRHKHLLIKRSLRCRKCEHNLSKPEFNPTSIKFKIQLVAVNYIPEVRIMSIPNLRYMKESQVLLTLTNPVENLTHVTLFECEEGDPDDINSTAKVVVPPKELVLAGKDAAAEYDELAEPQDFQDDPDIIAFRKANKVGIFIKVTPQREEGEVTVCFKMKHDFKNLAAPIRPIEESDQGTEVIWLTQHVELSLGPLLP
UniProt Q9UDY2: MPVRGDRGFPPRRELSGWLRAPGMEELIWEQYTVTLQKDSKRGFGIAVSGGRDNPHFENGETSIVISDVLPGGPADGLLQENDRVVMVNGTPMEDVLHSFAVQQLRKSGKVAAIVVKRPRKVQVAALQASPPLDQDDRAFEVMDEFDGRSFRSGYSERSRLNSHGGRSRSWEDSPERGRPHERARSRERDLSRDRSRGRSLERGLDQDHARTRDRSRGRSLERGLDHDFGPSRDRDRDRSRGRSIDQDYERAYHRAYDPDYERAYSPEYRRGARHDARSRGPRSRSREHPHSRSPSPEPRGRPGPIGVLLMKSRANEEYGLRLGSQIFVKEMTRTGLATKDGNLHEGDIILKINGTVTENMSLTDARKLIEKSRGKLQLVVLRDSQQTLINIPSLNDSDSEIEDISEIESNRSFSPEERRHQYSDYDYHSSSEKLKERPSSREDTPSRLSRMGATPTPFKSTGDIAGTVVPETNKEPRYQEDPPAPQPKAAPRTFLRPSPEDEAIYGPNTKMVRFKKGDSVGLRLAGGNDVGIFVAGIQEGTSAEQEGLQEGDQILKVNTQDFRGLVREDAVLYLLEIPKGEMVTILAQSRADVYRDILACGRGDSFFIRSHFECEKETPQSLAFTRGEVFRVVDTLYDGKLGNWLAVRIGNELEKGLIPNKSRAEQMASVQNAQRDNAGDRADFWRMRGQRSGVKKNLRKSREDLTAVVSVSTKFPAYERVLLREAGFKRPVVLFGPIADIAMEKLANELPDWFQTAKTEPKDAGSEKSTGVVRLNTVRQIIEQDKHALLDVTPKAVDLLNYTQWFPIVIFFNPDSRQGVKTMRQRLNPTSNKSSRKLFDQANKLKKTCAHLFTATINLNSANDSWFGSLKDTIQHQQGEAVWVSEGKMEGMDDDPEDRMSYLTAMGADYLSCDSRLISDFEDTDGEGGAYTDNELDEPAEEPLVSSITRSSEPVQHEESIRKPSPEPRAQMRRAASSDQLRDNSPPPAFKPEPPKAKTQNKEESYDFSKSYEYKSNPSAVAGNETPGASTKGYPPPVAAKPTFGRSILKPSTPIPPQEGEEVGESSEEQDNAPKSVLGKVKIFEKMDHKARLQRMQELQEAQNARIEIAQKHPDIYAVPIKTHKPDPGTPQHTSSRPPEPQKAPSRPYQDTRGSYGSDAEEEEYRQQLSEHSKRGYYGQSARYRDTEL
UniProt Q9UKV5, whole entry: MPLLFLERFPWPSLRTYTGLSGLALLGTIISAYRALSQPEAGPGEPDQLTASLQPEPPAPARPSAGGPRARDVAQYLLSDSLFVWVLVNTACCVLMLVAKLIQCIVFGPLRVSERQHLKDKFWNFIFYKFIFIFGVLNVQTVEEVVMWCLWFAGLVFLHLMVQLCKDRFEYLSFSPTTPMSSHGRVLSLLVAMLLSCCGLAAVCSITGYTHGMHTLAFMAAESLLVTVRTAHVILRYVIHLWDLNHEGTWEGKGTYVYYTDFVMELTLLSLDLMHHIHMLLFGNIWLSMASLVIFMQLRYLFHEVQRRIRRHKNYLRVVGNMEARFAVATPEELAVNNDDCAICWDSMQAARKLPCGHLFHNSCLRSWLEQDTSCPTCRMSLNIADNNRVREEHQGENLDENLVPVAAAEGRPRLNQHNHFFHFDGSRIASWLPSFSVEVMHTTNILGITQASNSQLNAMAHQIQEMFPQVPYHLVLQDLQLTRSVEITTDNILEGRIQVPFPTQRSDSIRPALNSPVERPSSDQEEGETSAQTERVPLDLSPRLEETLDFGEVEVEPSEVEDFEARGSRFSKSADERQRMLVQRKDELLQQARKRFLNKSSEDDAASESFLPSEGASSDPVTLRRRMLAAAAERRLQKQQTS
UniProt Q9UNZ2: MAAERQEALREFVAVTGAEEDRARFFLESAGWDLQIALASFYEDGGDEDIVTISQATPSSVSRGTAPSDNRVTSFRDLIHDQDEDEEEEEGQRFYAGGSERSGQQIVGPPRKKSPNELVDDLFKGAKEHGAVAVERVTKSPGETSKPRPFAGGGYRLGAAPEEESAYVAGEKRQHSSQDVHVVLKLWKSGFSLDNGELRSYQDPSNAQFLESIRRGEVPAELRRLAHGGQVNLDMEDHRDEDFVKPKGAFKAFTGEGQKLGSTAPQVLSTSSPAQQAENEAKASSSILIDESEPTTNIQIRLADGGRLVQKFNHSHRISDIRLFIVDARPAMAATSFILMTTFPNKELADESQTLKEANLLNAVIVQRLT
UniProt Q9UNM6: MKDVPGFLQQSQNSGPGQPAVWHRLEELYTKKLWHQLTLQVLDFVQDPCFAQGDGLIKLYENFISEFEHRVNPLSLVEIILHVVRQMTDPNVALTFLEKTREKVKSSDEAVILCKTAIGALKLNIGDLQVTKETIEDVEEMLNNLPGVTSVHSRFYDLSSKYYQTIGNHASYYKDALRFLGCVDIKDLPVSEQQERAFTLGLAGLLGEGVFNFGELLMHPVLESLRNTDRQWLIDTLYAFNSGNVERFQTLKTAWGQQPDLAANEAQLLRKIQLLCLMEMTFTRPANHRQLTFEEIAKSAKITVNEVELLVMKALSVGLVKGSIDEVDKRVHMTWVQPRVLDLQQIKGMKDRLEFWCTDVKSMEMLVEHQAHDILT
UniProt Q9UKA9: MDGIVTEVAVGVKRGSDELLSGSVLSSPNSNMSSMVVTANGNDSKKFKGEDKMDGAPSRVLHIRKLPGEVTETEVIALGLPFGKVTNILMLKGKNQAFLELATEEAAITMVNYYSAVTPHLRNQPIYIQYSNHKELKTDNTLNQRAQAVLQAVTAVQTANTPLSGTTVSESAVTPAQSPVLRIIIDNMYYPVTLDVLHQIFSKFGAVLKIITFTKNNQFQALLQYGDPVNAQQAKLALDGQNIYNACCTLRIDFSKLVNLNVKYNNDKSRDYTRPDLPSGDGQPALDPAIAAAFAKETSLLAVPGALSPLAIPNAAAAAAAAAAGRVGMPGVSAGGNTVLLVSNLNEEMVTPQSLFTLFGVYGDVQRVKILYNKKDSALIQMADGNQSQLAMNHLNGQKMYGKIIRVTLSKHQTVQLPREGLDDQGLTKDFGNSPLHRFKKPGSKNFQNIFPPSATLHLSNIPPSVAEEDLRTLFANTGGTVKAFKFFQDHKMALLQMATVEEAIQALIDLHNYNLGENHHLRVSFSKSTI
UniProt Q9UKG9: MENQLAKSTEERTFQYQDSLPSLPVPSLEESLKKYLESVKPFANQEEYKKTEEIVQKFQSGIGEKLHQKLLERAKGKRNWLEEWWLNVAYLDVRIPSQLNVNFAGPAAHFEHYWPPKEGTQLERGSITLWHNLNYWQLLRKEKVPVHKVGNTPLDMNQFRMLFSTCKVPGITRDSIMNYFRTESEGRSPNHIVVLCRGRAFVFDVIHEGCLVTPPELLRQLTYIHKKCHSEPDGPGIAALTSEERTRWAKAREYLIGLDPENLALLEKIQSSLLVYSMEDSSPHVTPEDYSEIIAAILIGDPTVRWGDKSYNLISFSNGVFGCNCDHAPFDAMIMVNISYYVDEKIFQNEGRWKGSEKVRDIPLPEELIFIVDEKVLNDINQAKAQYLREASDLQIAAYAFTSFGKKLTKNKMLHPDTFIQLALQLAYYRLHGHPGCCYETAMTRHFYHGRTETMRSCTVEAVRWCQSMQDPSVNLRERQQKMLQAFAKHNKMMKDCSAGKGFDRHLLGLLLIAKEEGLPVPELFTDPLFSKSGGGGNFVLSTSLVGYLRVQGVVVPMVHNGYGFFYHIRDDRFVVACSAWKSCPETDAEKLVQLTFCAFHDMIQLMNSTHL
UniProt Q9ULM3: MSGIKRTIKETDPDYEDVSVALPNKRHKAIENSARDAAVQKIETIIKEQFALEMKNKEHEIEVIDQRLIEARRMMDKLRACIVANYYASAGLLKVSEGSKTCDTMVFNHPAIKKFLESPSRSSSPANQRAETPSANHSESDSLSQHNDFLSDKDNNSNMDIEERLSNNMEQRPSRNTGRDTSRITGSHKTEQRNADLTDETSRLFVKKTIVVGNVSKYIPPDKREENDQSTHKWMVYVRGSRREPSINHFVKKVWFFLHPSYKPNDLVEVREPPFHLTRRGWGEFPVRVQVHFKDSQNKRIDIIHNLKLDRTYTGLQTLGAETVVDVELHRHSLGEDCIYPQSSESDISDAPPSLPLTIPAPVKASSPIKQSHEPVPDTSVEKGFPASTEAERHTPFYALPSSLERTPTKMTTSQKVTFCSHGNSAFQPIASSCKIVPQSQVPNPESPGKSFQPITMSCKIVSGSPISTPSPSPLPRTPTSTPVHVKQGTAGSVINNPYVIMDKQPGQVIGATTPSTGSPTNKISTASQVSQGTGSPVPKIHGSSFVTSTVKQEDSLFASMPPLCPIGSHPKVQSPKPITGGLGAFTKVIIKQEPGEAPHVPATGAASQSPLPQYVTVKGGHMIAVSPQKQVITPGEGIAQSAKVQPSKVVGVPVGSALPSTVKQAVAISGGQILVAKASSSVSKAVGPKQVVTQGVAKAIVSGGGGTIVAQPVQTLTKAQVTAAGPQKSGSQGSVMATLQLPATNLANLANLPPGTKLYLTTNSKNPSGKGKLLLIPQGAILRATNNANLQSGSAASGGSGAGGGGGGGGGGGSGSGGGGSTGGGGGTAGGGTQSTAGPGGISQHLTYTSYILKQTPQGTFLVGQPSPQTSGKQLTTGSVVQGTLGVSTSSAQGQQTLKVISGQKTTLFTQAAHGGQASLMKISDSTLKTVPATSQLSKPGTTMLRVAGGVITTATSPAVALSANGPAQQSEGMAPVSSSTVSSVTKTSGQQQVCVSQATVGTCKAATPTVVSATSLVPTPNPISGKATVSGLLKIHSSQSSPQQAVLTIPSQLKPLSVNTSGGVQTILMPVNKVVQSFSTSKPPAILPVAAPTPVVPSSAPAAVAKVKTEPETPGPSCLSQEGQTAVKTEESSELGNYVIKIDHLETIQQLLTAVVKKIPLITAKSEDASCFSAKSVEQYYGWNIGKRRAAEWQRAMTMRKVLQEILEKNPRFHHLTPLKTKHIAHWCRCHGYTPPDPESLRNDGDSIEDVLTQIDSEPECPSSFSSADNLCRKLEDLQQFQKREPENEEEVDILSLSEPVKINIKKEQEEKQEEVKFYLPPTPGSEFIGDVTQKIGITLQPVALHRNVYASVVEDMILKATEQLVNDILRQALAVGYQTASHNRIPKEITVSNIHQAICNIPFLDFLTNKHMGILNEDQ

Compound: Nc1ncnc2c1ncn2[C@@H]1O[C@H](COP(=O)(O)OP(=O)(O)OP(=O)(O)O)[C@@H](O)[C@H]1O [adenosine triphosphate]
Test: NP40-soluble protein abundance relative to vehicle (solubility fold change) (ratio); higher = more soluble protein in presence of ATP
In short: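 Crude Jurkat lysate, prepared by Dounce homogenisation, was exposed to eight concentrations from 0.1 to 10 mM for 10 min at room temperature and then 3 min at 37 °C. Solubilisation used 0.8% NP40 with benzonase for 60 min at 4 °C, followed by ultracentrifugation and TMT labelling of the supernatant for LC-MS/MS. After vsn normalisation of intensities, each value is the fold change against the detergent-processed vehicle within each replicate, across three independent experiments.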

Target	NP40-soluble protein abundance (concentration: 0.1mM)	NP40-soluble protein abundance (concentration: 0.5mM)
UniProt Q9UPT9 and related entries	1.02 ± 0.051	1.04 ± 0.03
CHD7 (UniProt Q9P2D1)	1.03 ± 0.045	1.01 ± 0.1
UniProt Q9UJY5 and related entries	0.97 ± 0.059	0.979 ± 0.04
UniProt Q9ULR0 and related entries	0.961 ± 0.069	0.969 ± 0.044
DCTN4 (UniProt Q9UJW0)	1.02 ± 0.018	1.03 ± 0.053
UniProt Q9UDY2 and related entries	1.14 ± 0.035	1.17 ± 0.054
UniProt Q9UJX5 and related entries	1 ± 0.055	0.994 ± 0.049
UniProt Q9UL03 and related entries	1.01 ± 0.053	1.06 ± 0.059
UniProt Q9UJK0	0.961 ± 0.085	0.832 ± 0.18
AMFR (UniProt Q9UKV5)	1.06 ± 0.018	1 ± 0.043
UniProt Q9UQ84 and related entries	0.918 ± 0.056	1.025 ± 0.0075
SCML2 (UniProt Q9UQR0)	1 ± 0.016	1.11 ± 0.029
UniProt Q9UNZ2 and related entries	1.12 ± 0.06	0.987 ± 0.023
UniProt Q9UNM6 and related entries	0.979 ± 0.038	0.957 ± 0.024
UniProt Q9UKA9 and related entries	1.01 ± 0.058	1 ± 0.03
STOML2 (UniProt Q9UJZ1)	0.968 ± 0.046	1.01 ± 0.058
UniProt Q9UIS9 and related entries	1.01 ± 0.043	1.05 ± 0.055
CROT (UniProt Q9UKG9)	1.07 ± 0.15	1.04 ± 0.023
HECTD1 (UniProt Q9ULT8)	1.01 ± 0.015	1 ± 0.042
YEATS2 (UniProt Q9ULM3)	0.994 ± 0.031	1.06 ± 0.076
UniProt Q9UN86-2|Q9UN86	1.02 ± 0.022	1.09 ± 0.078

An excerpt of these results, as labelled records.
UniProt Q9UPT9 and related entries
  NP40-soluble protein abundance (concentration: 0.1mM): 1.02 ± 0.051
  NP40-soluble protein abundance (concentration: 0.5mM): 1.04 ± 0.03
UniProt Q9UKA9 and related entries
  NP40-soluble protein abundance (concentration: 0.1mM): 1.01 ± 0.058
  NP40-soluble protein abundance (concentration: 0.5mM): 1 ± 0.03
